Reference: the supplement of paper PMC10398353
Where a name gives a salt, the structure may show the parent alone. ± gives the standard deviation of the averaged measurements. This is one part of the list. The data scatter; read single values as rough.

tested on: Salmonella enterica serovar Typhimurium ST313 D23580; experiment: normalized bacterial growth (OD600 20 h minus 0 h, interquartile-mean normalized) (fraction of plate interquartile mean); higher = more bacterial growth (less inhibition); details: LPM (pH 5.8, low phosphate, low Mg2+), concentration: 10 µM, temperature: 37 °C

SMILES | normalized bacterial growth
C[C@H]([C@H](O)CCC(C)(C)O)[C@H]1CC[C@@]2(O)C3=CC(=O)[C@@H]4C[C@@H](O)[C@@H](O)C[C@]4(C)[C@H]3CC[C@]12C | 1.19
CN[C@@H]1C[C@@H](c2ccc(Cl)c(Cl)c2)c2ccccc21 [Indatraline hydrochloride] | 0.821
O=[N+]([O-])c1cc(O)c(O)c([N+](=O)[O-])c1 ["3,5-Dinitrocatechol"] | 1.12
O=[N+]([O-])O[C@@H]1CO[C@H]2[C@@H]1OC[C@@H]2O | 0.991
C=CCN1C[C@H](C)N([C@H](c2ccc(C(=O)N(CC)CC)cc2)c2cccc(OC)c2)C[C@H]1C | 0.779
CC(C)=CCOc1c2occc2cc2ccc(=O)oc12 | 1.34
CCN1C[C@]2(C)CC[C@H](OC)[C@@]34C1[C@]1(OCO[C@@]15C[C@H](OC)[C@H]1C[C@]3(O)[C@@H]5[C@H]1OC)[C@@H](OC(C)=O)[C@H]24 | 1.26
CCN1C[C@]2(C)CC[C@H](OC)[C@@]34C1[C@]1(OCO[C@@]15C[C@H](OC)[C@H]1C[C@]3(O)[C@@H]5[C@H]1OC)[C@@H](OC(C)=O)[C@H]24 [Deltaline] | 0.787
NC(=O)c1ccc(N)nc1 | 0.767
N[C@@H](Cc1ccc(N(CCCl)CCCl)cc1)C(=O)O | 0.757
N[C@@H](Cc1ccc(N(CCCl)CCCl)cc1)C(=O)O [Melphalan] | 0.886
OC1CCCCC1N1CCC(c2ccccc2)CC1 (stereo not drawn) [()-Vesamicol hydrochloride] | 1.07
CC(Cc1ccc(OCC(=O)O)cc1)NCC(O)c1cccc(Cl)c1 (stereo not drawn) | 1.07
CC1=CC(=O)c2c(O)cccc2C1=O | 0.66
CC(C)N(CCC(C(N)=O)(c1ccccc1)c1ccccn1)C(C)C (stereo not drawn) [Disopyramide] | 1.02
CC(C)N(CCC(C(N)=O)(c1ccccc1)c1ccccn1)C(C)C (stereo not drawn) [Disopyramide phosphate] | 1.08
COP(N)(=O)SC (stereo not drawn) | 1.1
CC[C@@]1(O)C[C@H](O[C@H]2C[C@H](N(C)C)[C@H](O)[C@H](C)O2)c2c(cc3c(c2O)C(=O)c2c(O)cccc2C3=O)[C@H]1C(=O)OC | 0.781
N=C(N)NN [Aminoguanidine hydrochloride] | 1.03
N=C(N)NN [Aminoguanidine hemisulfate] | 1.22
C[C@H](N)[C@H](O)c1ccc(O)c(O)c1 | 1.2
Clc1ccc(C2CC3CCC2N3)cn1 (stereo not drawn) | 1.12
COc1cccc(C2(O)CCCCC2CN(C)C)c1 (stereo not drawn) | 0.907
CC(CCc1ccccc1)NC(C)C(O)c1ccc(O)cc1 (stereo not drawn) [Nylidrin hydrochloride] | 1.1
Cc1c(C(=O)c2cccc3ccccc23)c2cccc3c2n1[C@H](CN1CCOCC1)CO3 ["( R)-(+)-WIN 55,212-2 mesylate"] | 0.952
Cc1cc(OC(=O)N2CCCCC2)c(C(C)C)cc1[N+](C)(C)C | 1

SMILES | normalized bacterial growth
C=C(C)c1cc2cc(C(C)=O)c(O)cc2o1 | 0.982
c1ccc2nc(N3CCNCC3)ccc2c1 [Quipazine dimaleate] | 1.5
c1ccc2nc(N3CCNCC3)ccc2c1 | 1.03
C[N+](C)(C)CCCCCCCCCC[N+](C)(C)C [Decamethonium dibromide] | 1.24
CC(C)OC(=O)Nc1cccc(Cl)c1 | 1.12
C[N+]1(C)[C@@H]2CC[C@H]1C[C@@H](OC(=O)C(CO)c1ccccc1)C2 (stereo partly drawn) [Atropine methyl bromide] | 1.02
C[N+]1(C)[C@@H]2CC[C@H]1C[C@@H](OC(=O)C(CO)c1ccccc1)C2 (stereo partly drawn) [Atropine methyl nitrate] | 1.09
C[N+]1(C)[C@@H]2CC[C@H]1C[C@@H](OC(=O)C(CO)c1ccccc1)C2 (stereo partly drawn) [Methylatropine nitrate] | 1.03
C/C=C1/C[C@@H](C)[C@@](C)(O)C(=O)OCC2=CCN3CC[C@@H](OC1=O)[C@@H]23 | 0.818
O=C1NCN(c2ccccc2)C12CCN(CC1COc3ccccc3O1)CC2 (stereo not drawn) [Spiroxatrine] | 0.957
CN1C[C@H](C(=O)N[C@]2(C)O[C@@]3(O)[C@@H]4CCCN4C(=O)[C@H](Cc4ccccc4)N3C2=O)C[C@@H]2c3cccc4[nH]cc(c34)C[C@H]21 [Dihydroergotamine tartrate] | 0.963
CN1C[C@H](C(=O)N[C@]2(C)O[C@@]3(O)[C@@H]4CCCN4C(=O)[C@H](Cc4ccccc4)N3C2=O)C[C@@H]2c3cccc4[nH]cc(c34)C[C@H]21 [Dihydroergotamine methanesulfonate] | 1.37
CN1C[C@H](C(=O)N[C@]2(C)O[C@@]3(O)[C@@H]4CCCN4C(=O)[C@H](Cc4ccccc4)N3C2=O)C[C@@H]2c3cccc4[nH]cc(c34)C[C@H]21 | 0.918
CC1C2Cc3ccc(O)cc3C1(C)CCN2CC1CC1 (single isomer, unassigned; (+)) [(+)-Cyclazocine] | 0.987
CC(C)=CCC[C@]1(C)C=Cc2c(O)c3c(c(CC=C(C)C)c2O1)O[C@]12C(=C[C@@H]4C[C@H]1C(C)(C)O[C@@]2(C/C=C(/C)C(=O)O)C4=O)C3=O | 1 ± 0.096
NCCc1cc(O)c(O)cc1O | 0.735
C#C[C@]1(O)CC[C@H]2[C@@H]3CCC4=Cc5nc6nc7ccccc7n6cc5C[C@]4(C)[C@H]3CC[C@@]21C | 1.27
C=CCN(C1=NCCN1)c1c(Cl)cccc1Cl [Alinidine] | 0.943
CC[C@@]1(O)C(=O)OCc2c1cc1n(c2=O)Cc2cc3ccccc3nc2-1 | 0.888
CC[C@@]1(O)C(=O)OCc2c1cc1n(c2=O)Cc2cc3ccccc3nc2-1 [(S)-(+)-Camptothecin] | 0.951
N#Cc1nn(-c2c(Cl)cc(C(F)(F)F)cc2Cl)c(N)c1[S+]([O-])C(F)(F)F (stereo not drawn) | 0.824
O=C1C[C@@H]2OCC=C3CN4CC[C@]56c7ccccc7N1[C@H]5[C@H]2[C@H]3C[C@H]46 | 1.07 ± 0.058
CCCCCCCCCc1ccc(O)cc1 | 1.16
C[C@H]1C/C=C/[C@H]2[C@@H]3O[C@]3(C)[C@@H](C)[C@H]3[C@H](Cc4ccccc4)NC(=O)[C@]32OC(=O)O/C=C/[C@@](C)(O)C1=O | 0.89
COc1ccc2[nH]cc(CCN)c2c1 [O-Methylserotonin hydrochloride] | 1.13
Cc1ncc(CNC(=O)N(CCCl)N=O)c(N)n1 [Nimustine hydrochloride] | 1.16

2 entries from above, with tabs.
SMILES	normalized bacterial growth
COc1ccc2[nH]cc(CCN)c2c1 [O-Methylserotonin hydrochloride]	1.13
Cc1ncc(CNC(=O)N(CCCl)N=O)c(N)n1 [Nimustine hydrochloride]	1.16

Part of the list above in a different format.
SMILES	normalized bacterial growth
C=C(C)c1cc2cc(C(C)=O)c(O)cc2o1	0.982
c1ccc2nc(N3CCNCC3)ccc2c1 [Quipazine dimaleate]	1.5

Looked up one by one from the entries so far:
SMILES | normalized bacterial growth
CC[C@@]1(O)C(=O)OCc2c1cc1n(c2=O)Cc2cc3ccccc3nc2-1 | 0.888
C[N+]1(C)[C@@H]2CC[C@H]1C[C@@H](OC(=O)C(CO)c1ccccc1)C2 (stereo partly drawn) [Methylatropine nitrate] | 1.03

(cont.)

SMILES | normalized bacterial growth
CCC12C=CCN3CC[C@@]4(c5ccc(OC)cc5N(C)[C@H]4[C@@](O)(C(=O)OC)[C@@H]1OC(C)=O)[C@@H]32 (stereo partly drawn) | 0.784 ± 0.045
C[C@H]1CCC/C=C/[C@@H]2C[C@H](O)C[C@H]2[C@H](O)/C=C/C(=O)O1 | 0.948
CN1CCCCC1c1ccc(-c2cccnc2)nc1 (stereo not drawn) | 1.1
C[C@@H]1C[C@H]2CC[C@H](O2)[C@H](C)C(=O)O[C@@H](C)C[C@@H]2CC[C@@H](O2)[C@@H](C)C(=O)O[C@H](C)C[C@H]2CC[C@@H](O2)[C@H](C)C(=O)O[C@@H](C)C[C@@H]2CC[C@@H](O2)[C@@H](C)C(=O)O1 | 0.869
CN1C[C@@H](NS(=O)(=O)N(C)C)C[C@@H]2c3cccc4c3c(cn4C)C[C@H]21 [Mesulergine hydrochloride] | 0.905
C[N+](C)(C)CC#CCOC(=O)Nc1cccc(Cl)c1 | 1.17
CC[C@@H](C)C(=O)O[C@H]1[C@H](O)[C@H]2[C@@H](CN3C[C@@H](C)CC[C@H]3[C@@]2(C)O)[C@@H]2C[C@]34O[C@]5(O)[C@@H](OC(=O)[C@](C)(O)[C@@H](C)O)CC[C@@]3(C)[C@@H]5[C@@H](OC(C)=O)[C@@H](OC(C)=O)[C@H]4[C@@]21O (stereo in doubt) | 1.07
CC1=C(O)C(=O)C=C2C1=CC=C1[C@@]2(C)CC[C@@]2(C)[C@@H]3C[C@](C)(C(=O)O)CC[C@]3(C)CC[C@]12C | 1.05
CC(=O)Oc1ccc(/C=C/c2cc(OC(C)=O)cc(OC(C)=O)c2)cc1 | 0.979
N#C/C(=C\c1ccc(O)cc1)C(=O)O [alpha-CYANO-4-HYDROXYCINNAMIC ACID] | 1.03
Oc1cccc2cccnc12 | 0.421
N.N.[Cl][Pt][Cl] | 1.11
N.N.[Cl][Pt][Cl] [Cisplatin] | 1
CCCN1C[C@H](CSC)C[C@@H]2c3cccc4[nH]cc(c34)C[C@H]21 [Pergolide methanesulfonate] | 0.826
CCCCc1ccc(C(=O)O)nc1 [Fusaric acid] | 0.247
CC(C)N1C(=O)c2ccccc2NS1(=O)=O | 1.01
Oc1ccc2c3c1O[C@H]1c4[nH]c5c(c4C[C@@]4(O)[C@@H](C2)N(CC2CC2)CC[C@]314)C[C@@]1(O)[C@H]2Cc3ccc(O)c4c3[C@@]1(CCN2CC1CC1)[C@H]5O4 [nor-Binaltorphimine dihydrochloride] | 0.706
CCCCCCCCCCCCCC(=O)O[C@@H]1[C@@H](C)[C@@]2(O)[C@@H](C=C(CO)C[C@]3(O)C(=O)C(C)=C[C@@H]23)[C@@H]2C(C)(C)[C@]12OC(C)=O | 1.08
COc1ccc(C(=O)N2CCCC2=O)cc1 [Aniracetam] | 1.07
COc1nc(NC(C)C)nc(NC(C)C)n1 | 0.881
C=CCN1CCc2cccc3c2[C@H]1Cc1ccc(O)c(O)c1-3 [R(-)-N-Allylnorapomorphine hydrobromide] | 0.514
Cc1[nH]c2ccc(O)cc2c1CCN [2-Methyl-5-hydroxytryptamine maleate] | 1.06
CCS(=O)(=O)Nc1cccc(C(=C2CCCCC2)c2cnc[nH]2)c1 | 0.916
NCC(O)c1cc(O)c(O)cc1F (stereo not drawn) [6-Fluoronorepinephrine hydrochloride] | 0.65
CC[C@@H](C(N)=O)N1CCCC1=O [Levetiracetam] | 1.07
COC(=O)[C@@H]1C[C@H](OC(C)=O)C(=O)[C@H]2[C@@]1(C)CC[C@H]1C(=O)O[C@H](c3ccoc3)C[C@]21C | 0.989
